# Results are given in words; binding and its absence hold for the method and conditions named. In cells and extracts the contact can be indirect. A yes stands for co-enrichment or nearness to the bait. Other partners may have been found.
# Amino acid sequences for entries named in this document (tags omitted). A change or cut given only in a name is not applied to a line headed by its entry.
# UniProt Q09472, whole entry: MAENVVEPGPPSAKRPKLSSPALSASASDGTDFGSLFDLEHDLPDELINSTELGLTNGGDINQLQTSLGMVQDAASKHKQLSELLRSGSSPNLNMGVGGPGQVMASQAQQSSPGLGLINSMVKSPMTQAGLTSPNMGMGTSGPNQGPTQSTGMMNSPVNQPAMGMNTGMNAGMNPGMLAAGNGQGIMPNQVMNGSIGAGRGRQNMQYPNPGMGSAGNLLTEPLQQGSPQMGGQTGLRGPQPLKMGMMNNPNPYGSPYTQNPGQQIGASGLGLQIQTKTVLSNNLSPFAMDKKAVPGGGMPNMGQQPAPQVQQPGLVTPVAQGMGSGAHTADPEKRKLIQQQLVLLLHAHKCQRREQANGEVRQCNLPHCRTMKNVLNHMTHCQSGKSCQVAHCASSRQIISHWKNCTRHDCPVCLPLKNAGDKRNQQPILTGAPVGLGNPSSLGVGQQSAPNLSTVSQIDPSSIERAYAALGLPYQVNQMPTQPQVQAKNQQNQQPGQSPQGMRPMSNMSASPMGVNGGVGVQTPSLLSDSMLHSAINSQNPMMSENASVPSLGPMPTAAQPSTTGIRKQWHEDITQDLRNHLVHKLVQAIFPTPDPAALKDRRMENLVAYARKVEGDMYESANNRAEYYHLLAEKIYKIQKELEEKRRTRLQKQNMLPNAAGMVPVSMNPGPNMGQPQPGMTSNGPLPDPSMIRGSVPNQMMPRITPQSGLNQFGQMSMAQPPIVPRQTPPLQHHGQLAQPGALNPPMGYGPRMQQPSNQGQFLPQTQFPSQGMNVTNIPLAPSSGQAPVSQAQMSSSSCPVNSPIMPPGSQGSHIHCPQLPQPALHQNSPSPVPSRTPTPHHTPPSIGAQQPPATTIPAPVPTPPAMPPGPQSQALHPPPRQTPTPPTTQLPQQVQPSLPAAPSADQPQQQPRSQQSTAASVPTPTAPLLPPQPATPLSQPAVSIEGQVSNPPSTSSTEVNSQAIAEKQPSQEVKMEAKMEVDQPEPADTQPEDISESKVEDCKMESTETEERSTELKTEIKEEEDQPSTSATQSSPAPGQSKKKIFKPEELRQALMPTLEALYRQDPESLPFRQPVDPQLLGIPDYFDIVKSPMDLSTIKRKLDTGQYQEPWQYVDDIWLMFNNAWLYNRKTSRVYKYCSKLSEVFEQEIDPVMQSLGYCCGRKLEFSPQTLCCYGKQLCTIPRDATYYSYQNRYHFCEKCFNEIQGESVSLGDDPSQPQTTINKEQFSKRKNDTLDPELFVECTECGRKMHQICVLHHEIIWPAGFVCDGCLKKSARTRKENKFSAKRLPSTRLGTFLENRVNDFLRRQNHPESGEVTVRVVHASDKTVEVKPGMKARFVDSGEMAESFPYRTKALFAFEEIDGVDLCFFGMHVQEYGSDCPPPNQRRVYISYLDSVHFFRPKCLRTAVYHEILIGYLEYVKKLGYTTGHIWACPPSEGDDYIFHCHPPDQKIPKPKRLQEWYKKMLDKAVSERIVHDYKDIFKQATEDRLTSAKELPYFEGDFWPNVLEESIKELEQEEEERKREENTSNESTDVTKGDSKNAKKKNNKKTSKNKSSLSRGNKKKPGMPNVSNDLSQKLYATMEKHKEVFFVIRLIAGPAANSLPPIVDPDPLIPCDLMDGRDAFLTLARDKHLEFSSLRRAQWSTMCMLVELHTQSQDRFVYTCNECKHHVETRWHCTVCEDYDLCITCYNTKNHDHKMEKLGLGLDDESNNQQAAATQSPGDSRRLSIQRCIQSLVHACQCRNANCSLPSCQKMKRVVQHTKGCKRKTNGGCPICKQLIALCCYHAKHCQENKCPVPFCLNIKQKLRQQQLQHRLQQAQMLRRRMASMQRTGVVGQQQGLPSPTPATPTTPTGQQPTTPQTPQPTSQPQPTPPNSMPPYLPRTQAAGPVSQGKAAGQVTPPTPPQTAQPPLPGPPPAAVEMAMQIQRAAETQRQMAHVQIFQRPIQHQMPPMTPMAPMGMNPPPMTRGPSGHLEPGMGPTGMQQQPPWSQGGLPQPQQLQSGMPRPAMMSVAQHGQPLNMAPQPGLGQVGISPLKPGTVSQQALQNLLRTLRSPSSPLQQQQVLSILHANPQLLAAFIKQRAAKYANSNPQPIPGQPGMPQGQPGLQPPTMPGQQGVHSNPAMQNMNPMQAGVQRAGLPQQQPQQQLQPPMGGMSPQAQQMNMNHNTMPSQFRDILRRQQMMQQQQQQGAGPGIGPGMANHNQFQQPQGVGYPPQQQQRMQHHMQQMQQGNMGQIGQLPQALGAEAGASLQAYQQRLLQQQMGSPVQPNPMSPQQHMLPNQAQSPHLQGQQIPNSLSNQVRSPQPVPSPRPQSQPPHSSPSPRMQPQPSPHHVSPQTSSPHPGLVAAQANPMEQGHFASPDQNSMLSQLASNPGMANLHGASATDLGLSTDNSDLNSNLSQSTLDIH
# UniProt P10275, whole entry, looked up, stated change not applied: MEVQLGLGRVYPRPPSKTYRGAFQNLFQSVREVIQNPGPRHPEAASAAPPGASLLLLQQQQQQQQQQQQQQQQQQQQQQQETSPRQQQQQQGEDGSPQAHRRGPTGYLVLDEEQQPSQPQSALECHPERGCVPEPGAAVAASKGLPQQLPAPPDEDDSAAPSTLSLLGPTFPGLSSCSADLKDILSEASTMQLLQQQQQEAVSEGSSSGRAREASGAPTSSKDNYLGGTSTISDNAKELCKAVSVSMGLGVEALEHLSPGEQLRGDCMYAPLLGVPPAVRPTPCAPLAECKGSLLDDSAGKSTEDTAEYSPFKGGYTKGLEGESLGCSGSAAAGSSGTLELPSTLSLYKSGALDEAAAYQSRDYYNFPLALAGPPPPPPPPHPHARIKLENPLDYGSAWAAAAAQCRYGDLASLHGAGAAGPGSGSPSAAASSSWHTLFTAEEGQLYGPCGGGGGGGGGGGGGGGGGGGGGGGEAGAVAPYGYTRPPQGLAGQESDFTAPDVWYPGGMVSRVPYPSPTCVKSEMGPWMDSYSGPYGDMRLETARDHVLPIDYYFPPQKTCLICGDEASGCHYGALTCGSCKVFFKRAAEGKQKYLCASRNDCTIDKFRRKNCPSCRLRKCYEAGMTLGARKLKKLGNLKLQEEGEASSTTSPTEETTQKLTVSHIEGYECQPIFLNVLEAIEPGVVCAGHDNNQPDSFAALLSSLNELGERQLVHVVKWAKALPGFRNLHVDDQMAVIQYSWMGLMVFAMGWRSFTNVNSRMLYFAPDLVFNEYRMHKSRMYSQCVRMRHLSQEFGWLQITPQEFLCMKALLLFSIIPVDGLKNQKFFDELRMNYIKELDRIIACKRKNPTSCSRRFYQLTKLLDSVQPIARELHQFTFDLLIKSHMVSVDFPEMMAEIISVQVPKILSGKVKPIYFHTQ
# Experiments:
# p300 BioID bait = p300 BioID bait (UniProt Q09472); assay: proximity labelling
# AR-V7 BioID bait = AR-V7 BioID bait (UniProt P10275); assay: proximity labelling
substance,measurement,setting,value
Yin Yang 1 (endogenous) (from UniProt P25490 1-414),binding,p300 BioID bait,binds
same,binding,AR-V7 BioID bait,binds

# Source: publication doi:10.1101/2025.08.04.668477
